Test results taken from article PMC4432279.
These are yes or no findings as the source states them, for the method shown. In cells and extracts the contact can be indirect. Here binding means that the protein was enriched with, or labelled near, the bait; the list need not be complete.

Sequences of proteins named here, by UniProt entry; tags and fusion partners are left off.
UniProt O95071: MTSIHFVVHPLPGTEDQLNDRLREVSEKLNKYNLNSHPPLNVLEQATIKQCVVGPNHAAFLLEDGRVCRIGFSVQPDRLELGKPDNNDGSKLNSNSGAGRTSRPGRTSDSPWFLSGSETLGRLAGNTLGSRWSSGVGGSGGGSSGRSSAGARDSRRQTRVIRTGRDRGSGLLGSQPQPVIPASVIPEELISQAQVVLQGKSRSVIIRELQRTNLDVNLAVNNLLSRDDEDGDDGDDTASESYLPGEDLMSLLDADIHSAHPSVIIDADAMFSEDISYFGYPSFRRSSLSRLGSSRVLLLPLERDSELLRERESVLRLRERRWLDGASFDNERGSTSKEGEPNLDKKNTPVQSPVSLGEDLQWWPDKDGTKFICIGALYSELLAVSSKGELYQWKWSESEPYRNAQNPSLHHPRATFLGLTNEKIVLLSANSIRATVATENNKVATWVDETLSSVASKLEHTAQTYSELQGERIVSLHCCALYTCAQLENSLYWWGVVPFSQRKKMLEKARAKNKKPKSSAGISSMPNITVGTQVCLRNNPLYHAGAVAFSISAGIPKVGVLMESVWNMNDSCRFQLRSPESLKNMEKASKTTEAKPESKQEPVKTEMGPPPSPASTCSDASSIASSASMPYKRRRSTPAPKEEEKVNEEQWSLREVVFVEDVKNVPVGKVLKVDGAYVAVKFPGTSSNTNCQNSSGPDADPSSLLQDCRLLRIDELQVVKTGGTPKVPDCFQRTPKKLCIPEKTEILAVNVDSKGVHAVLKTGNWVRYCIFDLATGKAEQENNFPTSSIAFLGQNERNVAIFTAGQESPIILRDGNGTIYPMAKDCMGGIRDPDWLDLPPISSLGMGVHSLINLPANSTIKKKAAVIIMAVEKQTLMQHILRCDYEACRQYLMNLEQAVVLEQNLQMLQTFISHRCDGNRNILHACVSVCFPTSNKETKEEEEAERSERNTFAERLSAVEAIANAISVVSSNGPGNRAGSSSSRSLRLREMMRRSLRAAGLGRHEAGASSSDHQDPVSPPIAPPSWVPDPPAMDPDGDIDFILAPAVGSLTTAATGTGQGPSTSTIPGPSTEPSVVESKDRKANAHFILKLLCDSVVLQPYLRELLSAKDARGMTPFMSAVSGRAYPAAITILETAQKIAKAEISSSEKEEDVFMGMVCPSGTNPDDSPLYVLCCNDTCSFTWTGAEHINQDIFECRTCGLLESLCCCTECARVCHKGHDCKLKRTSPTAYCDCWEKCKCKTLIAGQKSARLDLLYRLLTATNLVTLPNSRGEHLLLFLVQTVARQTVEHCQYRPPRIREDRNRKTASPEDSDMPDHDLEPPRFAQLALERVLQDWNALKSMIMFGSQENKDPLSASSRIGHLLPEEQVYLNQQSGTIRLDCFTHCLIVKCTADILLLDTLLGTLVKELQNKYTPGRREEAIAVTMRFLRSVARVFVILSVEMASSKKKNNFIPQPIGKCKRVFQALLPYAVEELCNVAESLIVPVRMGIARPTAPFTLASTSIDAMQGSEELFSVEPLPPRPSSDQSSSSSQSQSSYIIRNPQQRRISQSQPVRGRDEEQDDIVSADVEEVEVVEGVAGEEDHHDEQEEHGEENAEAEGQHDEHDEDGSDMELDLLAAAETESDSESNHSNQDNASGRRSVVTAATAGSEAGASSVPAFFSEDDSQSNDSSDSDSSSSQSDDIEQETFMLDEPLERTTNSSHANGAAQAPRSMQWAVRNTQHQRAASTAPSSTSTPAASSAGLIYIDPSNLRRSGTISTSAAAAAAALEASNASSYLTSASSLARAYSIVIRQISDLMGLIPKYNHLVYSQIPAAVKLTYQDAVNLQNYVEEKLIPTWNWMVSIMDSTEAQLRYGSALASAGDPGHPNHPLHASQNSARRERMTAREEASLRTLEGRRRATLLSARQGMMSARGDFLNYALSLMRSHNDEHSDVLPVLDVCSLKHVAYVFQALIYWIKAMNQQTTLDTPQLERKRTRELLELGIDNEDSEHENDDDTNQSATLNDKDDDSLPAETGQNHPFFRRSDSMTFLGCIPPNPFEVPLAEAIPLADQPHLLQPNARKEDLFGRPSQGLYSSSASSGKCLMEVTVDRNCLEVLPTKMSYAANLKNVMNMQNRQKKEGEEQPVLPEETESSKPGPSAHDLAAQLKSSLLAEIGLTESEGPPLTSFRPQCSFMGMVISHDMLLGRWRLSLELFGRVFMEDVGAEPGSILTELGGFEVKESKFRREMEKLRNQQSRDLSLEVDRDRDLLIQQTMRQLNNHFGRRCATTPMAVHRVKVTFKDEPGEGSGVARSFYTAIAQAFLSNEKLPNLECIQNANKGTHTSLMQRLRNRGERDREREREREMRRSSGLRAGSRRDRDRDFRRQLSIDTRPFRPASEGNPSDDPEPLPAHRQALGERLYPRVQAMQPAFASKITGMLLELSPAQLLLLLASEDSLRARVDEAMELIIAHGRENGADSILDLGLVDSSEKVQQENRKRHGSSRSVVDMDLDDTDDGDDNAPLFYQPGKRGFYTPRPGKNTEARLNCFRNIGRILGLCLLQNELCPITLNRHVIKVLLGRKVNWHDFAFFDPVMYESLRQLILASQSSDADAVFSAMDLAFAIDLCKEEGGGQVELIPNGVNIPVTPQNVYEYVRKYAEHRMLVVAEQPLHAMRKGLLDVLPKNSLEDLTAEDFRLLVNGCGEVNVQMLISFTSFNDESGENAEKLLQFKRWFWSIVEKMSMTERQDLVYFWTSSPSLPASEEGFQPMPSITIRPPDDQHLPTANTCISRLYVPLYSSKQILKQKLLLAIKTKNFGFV

Biological target: HS-EDD (2×HA/2×Strep-tagged E3 identified by differential display) (human) (UniProt O95071)
Test: affinity purification with mass spectrometry; lysates of HS-EDD or HS tag HEK293 cells tandem affinity-purified by HA and Streptactin resins; SDS-PAGE, in-gel trypsin digest, LC-MS (LTQ-Orbitrap); proteins found in the HS-only sample removed; n = 3

B1: MRS2 (protein, UniProt Q9HD23 50-443)
chain: RAAQLCGPDRLRVAGEVHRFRTSDVSQATLASVAPVFTVTKFDKQGNVTSFERKKTELYQELGLQARDLRFQHVMSITVRNNRIIMRMEYLKAVITPECLLILDYRNLNLEQWLFRELPSQLSGEGQLVTYPLPFEFRAIEALLQYWINTLQGKLSILQPLILETLDALVDPKHSSVDRSKLHILLQNGKSLSELETDIKIFKESILEILDEEELLEELCVSKWSDPQVFEKSSAGIDHAEEMELLLENYYRLADDLSNAARELRVLIDDSQSIIFINLDSHRNVMMRLNLQLTMGTFSLSLFGLMGVAFGMNLESSLEEDHRIFWLITGIMFMGSGLIWRRLLSFLGRQLEAPLPPMMASLPKKTLLADRSMELKNSLRLDGLGSGRSILTNR
In the case of B1, the binding is reported as “binds”.
